Consider three substances from publication doi:10.1101/746180.

By UniProt entry, the sequences of proteins in these tests, tags left out. Where a name states a change or a piece, a line headed by the entry shows the natural chain unless it says otherwise. Chains listed by the source or under a name are the forms on record and can include a tag or linker. Residues count along the entry.
UniProt Q9H2F5: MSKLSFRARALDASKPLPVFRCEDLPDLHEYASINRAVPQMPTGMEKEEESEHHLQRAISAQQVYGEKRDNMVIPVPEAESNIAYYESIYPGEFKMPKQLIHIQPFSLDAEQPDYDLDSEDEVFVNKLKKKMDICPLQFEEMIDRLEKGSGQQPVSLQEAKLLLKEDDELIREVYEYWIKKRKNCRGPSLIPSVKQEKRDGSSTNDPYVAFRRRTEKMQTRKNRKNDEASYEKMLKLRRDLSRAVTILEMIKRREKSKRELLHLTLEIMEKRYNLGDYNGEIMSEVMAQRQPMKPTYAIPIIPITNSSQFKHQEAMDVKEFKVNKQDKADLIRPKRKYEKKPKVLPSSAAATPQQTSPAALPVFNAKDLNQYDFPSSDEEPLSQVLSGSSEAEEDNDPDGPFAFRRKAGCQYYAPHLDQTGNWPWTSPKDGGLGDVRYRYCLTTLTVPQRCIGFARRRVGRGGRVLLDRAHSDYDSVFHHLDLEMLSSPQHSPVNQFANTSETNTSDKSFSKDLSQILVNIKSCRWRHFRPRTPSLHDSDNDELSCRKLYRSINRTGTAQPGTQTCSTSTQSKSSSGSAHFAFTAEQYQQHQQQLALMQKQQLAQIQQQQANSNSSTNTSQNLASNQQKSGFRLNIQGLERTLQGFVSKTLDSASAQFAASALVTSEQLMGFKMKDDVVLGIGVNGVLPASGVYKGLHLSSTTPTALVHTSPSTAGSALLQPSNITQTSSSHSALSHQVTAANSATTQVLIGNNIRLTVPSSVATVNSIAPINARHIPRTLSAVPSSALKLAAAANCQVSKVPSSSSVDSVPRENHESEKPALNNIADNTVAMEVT
3xFlag-tagged EPC1(1-464): residues 1-464 of Q9H2F5
GST-EPC1(644-799): residues 644-799 of Q9H2F5
GST-EPC1(644-672): residues 644-672 of Q9H2F5
GST-EPC1(673-776): residues 673-776 of Q9H2F5
GST-EPC1(729-799): residues 729-799 of Q9H2F5
UniProt Q05BQ5: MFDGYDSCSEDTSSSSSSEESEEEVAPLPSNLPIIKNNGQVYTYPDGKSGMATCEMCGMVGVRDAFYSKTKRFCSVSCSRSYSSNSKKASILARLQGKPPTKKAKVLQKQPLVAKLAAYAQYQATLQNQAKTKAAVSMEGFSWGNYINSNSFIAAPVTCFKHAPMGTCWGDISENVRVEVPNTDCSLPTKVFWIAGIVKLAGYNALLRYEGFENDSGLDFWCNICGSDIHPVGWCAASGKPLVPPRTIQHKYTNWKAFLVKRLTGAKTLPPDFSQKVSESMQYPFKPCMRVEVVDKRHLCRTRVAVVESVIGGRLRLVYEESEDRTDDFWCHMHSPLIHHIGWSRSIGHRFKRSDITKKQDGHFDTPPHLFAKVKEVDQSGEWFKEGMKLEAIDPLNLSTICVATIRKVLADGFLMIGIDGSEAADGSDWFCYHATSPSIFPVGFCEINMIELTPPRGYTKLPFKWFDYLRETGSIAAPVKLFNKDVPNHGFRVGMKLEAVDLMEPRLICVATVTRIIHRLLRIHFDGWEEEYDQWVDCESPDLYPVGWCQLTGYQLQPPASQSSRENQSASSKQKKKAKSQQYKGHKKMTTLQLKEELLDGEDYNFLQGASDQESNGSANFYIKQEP
UniProt Q92993: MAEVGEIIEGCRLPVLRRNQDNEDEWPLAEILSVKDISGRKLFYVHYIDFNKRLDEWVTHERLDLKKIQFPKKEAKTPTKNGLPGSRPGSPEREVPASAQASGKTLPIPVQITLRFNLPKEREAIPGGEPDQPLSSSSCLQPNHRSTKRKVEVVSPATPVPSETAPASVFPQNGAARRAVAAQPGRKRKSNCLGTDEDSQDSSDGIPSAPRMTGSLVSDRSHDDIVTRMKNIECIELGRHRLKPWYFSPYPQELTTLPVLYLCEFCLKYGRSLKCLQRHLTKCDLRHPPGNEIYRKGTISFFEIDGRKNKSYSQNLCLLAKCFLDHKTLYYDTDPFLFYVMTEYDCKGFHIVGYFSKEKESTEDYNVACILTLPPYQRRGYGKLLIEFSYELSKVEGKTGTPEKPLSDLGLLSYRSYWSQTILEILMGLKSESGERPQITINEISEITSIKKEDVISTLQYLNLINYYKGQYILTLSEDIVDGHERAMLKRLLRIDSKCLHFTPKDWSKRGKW

In one experiment the target is GST-EPC1(644-672) (UniProt Q9H2F5). The experiment is described as follows: pull-down.
The target of the next experiment is GST-EPC1(644-799) (UniProt Q9H2F5). As to the kind of experiment: pull-down.
The next experiment concerns the target GST-EPC1(673-776) (UniProt Q9H2F5). The experiment is described as follows: pull-down.
The next experiment addresses GST-EPC1(729-799) (UniProt Q9H2F5). The experiment is described as follows: pull-down.
For experiment [1], the target named is 3xFlag-tagged EPC1 L651D/A660D/L663D (UniProt Q9H2F5). As to the kind of experiment: co-IP.
The target of a further experiment is 3xFlag-tagged EPC1 WT (UniProt Q9H2F5). As to the kind of experiment: co-IP.
Experiment [2] concerns the target 3xFlag-tagged EPC1(1-464) (UniProt Q9H2F5). As to the kind of experiment: co-IP.

Results are given in words; binding and its absence hold for the method and conditions named. For part of these data: Binding seen in cells or lysates may run through a third protein. Some entries that bind do so weakly or less than the wild type.

In the case of His-MBTD1 (from UniProt Q05BQ5 1-628), the binding entry with GST-EPC1(644-672) is given as “binds”; with GST-EPC1(644-799) it was “binds”; with GST-EPC1(673-776), “no binding”; with GST-EPC1(729-799), “no binding”.

Regarding “MBTD1 (endogenous, K562) (from UniProt Q05BQ5 1-628)”, the binding entry is “no binding” in experiment [1], “binds” with 3xFlag-tagged EPC1 WT and “no binding” in experiment [2].

“Tip60 (endogenous, K562) (from UniProt Q92993 1-513) (enzyme)”: the binding result (in experiment [1]; with 3xFlag-tagged EPC1 WT) was “binds” each time.
